PubChem BioAssay AID1053208 – Peter MacCallum Cancer Centre, 2014

Assay: 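Find knock-downs that sensitise mouse osteosarcoma cells to doxorubicin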 (primary screen)
Cells: mouse osteosarcoma cells, early-passage culture from an engineered mouse model of fibroblastic bone tumour
Reagents: siRNA pool against mouse genes, 40 nM
Timing: about 120 h (48 h before drug, then 72 h with drug)
Treatment: doxorubicin 100 nM for 72 h, roughly 30-40% inhibitory dose
Measured: 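Luminescent ATP signal taken as viability with or without 100 nM doxorubicin for 72 h; mean of two wells set against non-targeting siRNA and turned into robust z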
Scale: viability z-score with doxorubicin: higher = more viable cells under doxorubicin; viability z-score without drug: higher = more viable cells with knock-down alone
Hit rule: 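a pool counts as active when its viability z-score with doxorubicin is -2 or below and its z-score without drug lies between -2 and 2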
The whole screen tested about 17,000 reagents; this is a part drawn at random. 788 of all reagents (4.7%) count as active. 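Calls rest on z-score classes alone; an extra cut-off of viability at most 70% of control was not applied to them.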 Entries without a mark were called inactive. Further read-outs or replicates are left out here.

| gene knocked down | combined z-score class | viability z-score with doxorubicin | viability z-score without drug |
| --- | --- | --- | --- |
| Pgm3 (phosphoglucomutase 3) | no change with or without drug | -1.35 | 0.51 |
| Baalc (brain and acute leukemia, cytoplasmic) | no change with or without drug | -0.11 | -1.85 |
| Mok (MOK protein kinase) | no change with or without drug | -0.11 | -1.18 |
| Tbx20 (T-box 20) | no change with or without drug | -1.24 | -1.52 |
| Cdc123 (cell division cycle 123) | no change with or without drug | 0.9 | -1.18 |
| Rnf144b (ring finger protein 144B) | no change with or without drug | -0.67 | -0.51 |
| Cnih2 (cornichon family AMPA receptor auxiliary protein 2) | no change with or without drug | -0.67 | -0.51 |
| Faf2 (Fas associated factor family member 2) | no change with or without drug | 0 | -0.17 |
| Myo3a (myosin IIIA) | no change with or without drug | 1.69 | 0.34 |
| Or2n1b (olfactory receptor family 2 subfamily N member 1B) | no change with or without drug | 0.45 | -0.51 |
| Auh (AU RNA binding protein/enoyl-coenzyme A hydratase) | no change with or without drug | -1.12 | 1.18 |
| Nherf2 (NHERF family PDZ scaffold protein 2) | no change with or without drug | -0.67 | -0.84 |
| Clip3 (CAP-GLY domain containing linker protein 3) | no change with or without drug | 0.45 | 0 |

In a second layout: 3 of the entries above
gene knocked down	combined z-score class	viability z-score with doxorubicin	viability z-score without drug
Tbx20 (T-box 20)	no change with or without drug	-1.24	-1.52
Cdc123 (cell division cycle 123)	no change with or without drug	0.9	-1.18
Rnf144b (ring finger protein 144B)	no change with or without drug	-0.67	-0.51

More results:
| gene knocked down | combined z-score class | viability z-score with doxorubicin | viability z-score without drug |
| --- | --- | --- | --- |
| Trim69 (tripartite motif-containing 69) | no change with or without drug | -1.01 | 0.51 |
| Slco3a1 | no change with or without drug | -0.22 | -1.18 |
| Pcdhb4 (protocadherin beta 4) | no change with or without drug | -1.24 | 0.84 |
| Fam162a (family with sequence similarity 162, member A) | no change with or without drug | -0.67 | 1.18 |
| Cryzl1 (crystallin zeta like 1) | no change with or without drug | -1.24 | -0.17 |
| Lsm11 (U7 snRNP-specific Sm-like protein LSM11) | no change with or without drug | -1.57 | -0.17 |
| Mbtps2 (membrane-bound transcription factor peptidase, site 2) | no change with or without drug | 1.57 | 0.84 |
